Experimental findings from patent US20070054848A1, “Composition and method for nerve regeneration” (priority 2003, published 2007) are described below.

Amino acid sequences for entries named in this document (tags omitted). A change or cut given only in a name is not applied to a line headed by its entry.
UniProt O75116: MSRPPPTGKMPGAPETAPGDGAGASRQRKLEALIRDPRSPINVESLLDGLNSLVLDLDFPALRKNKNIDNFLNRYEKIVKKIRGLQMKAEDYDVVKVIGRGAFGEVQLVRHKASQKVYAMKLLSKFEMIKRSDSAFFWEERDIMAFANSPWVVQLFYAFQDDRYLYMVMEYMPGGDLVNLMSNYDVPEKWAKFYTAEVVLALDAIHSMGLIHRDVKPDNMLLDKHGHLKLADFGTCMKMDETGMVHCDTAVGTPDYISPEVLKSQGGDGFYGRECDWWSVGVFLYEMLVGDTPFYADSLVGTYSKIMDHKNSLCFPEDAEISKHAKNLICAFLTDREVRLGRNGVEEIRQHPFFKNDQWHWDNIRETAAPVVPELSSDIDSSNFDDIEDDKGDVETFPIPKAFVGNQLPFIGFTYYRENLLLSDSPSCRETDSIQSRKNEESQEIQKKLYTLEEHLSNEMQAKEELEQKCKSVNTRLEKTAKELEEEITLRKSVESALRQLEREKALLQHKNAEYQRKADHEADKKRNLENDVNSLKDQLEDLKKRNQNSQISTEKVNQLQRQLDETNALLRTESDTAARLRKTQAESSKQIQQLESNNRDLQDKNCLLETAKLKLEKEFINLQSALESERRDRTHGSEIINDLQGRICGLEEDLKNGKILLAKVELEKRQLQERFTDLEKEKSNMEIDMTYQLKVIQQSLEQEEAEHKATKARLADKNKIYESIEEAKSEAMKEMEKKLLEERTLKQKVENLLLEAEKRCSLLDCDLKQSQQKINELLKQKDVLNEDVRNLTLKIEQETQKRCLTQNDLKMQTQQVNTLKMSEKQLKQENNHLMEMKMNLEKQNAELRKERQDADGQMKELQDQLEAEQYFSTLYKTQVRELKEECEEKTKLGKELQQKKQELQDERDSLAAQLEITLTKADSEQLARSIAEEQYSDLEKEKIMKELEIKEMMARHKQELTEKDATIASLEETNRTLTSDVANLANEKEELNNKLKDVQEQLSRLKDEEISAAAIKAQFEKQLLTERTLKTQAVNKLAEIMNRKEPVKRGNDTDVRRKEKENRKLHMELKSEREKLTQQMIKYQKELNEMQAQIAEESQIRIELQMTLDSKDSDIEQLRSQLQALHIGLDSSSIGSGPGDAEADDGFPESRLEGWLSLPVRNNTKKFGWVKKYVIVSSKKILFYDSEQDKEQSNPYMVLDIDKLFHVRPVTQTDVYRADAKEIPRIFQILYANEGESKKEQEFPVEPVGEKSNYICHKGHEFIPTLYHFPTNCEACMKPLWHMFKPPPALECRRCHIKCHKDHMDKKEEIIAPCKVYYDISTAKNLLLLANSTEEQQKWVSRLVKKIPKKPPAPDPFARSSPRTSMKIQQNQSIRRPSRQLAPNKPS
UniProt P38936: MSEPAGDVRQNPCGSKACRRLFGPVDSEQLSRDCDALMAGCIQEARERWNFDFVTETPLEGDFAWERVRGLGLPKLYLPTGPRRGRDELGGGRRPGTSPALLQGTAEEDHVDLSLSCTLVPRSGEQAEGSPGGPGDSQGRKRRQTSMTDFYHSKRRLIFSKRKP
UniProt P61586: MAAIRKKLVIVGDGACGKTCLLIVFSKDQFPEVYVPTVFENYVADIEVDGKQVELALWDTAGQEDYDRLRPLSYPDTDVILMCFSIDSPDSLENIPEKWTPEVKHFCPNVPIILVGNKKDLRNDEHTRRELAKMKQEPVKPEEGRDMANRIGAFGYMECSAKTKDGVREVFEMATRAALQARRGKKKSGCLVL

These are yes or no findings as the source states them, for the method shown. For part of these data: Binding seen in cells or lysates may run through a third protein. Some results given as binding are weak or reduced against the parent protein; the word gives no strength. For part of these data: Sequences can lack the tags named with a protein.

The target of assay [1] is myc-tagged Rho-kinase (Homo sapiens (Human)) (UniProt O75116). Put plainly: figure legend (FIG. 17).
For assay [2] the target is unchanged. Put plainly: co-immunoprecipitation with anti-p21 antibody from 293T cells cotransfected with GFP-ΔNLS-p21 and myc-Rho-kinase, anti-myc blot.
Assay [3] has as its target T1, recombinant Rho GDI (from pGEX-GST-Rho GDI, GST moiety removed) (Homo sapiens (Human)) (UniProt P52565).
T1 sequence: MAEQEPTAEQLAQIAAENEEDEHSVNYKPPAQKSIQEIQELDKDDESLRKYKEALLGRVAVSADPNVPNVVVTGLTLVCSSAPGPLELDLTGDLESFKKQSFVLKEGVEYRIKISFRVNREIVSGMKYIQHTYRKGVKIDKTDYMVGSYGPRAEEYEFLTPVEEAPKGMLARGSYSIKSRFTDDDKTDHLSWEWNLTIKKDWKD
Put plainly: preformed RhoA-Rho GDI complex (prepared by incubation and gel filtration, p-1257).

For the substance “GFP-ΔNLS-p21 (aa 1-140) (from UniProt P38936 1-140)”, the binding entry in assay [1] and in assay [2] was “binds” each time.
As to “prenylated (lipid-modified) RhoA purified from yeast membranes (from UniProt P61586 1-190) (enzyme)”, in assay [3], the binding entry is on record as “binds”.
